Test results reported in PMC10449921.
Results are given in words; binding and its absence hold for the method and conditions named. In cells and extracts the contact can be indirect. Some binding calls cover weakened binding; strength is not graded here. For some assays here: Where a sequence is shown, tags or fusion partners need not be part of it.

By UniProt entry, the sequences of proteins in these tests, tags left out.
UniProt P06493: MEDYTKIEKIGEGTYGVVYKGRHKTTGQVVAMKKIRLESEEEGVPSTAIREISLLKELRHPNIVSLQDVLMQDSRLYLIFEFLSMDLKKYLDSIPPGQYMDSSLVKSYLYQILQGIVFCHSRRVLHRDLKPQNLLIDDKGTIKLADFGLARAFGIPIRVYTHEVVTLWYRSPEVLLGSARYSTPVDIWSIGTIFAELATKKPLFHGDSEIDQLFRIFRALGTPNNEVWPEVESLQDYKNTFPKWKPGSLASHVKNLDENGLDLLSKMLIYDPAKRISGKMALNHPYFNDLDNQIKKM

B1: PRDX1 (protein, UniProt Q06830 1-199)
chain: MSSGNAKIGHPAPNFKATAVMPDGQFKDISLSDYKGKYVVFFFYPLDFTFVCPTEIIAFSDRAEEFKKLNCQVIGASVDSHFCHLAWVNTPKKQGGLGPMNIPLVSDPKRTIAQDYGVLKADEGISFRGLFIIDDKGILRQITVNDLPVGRSVDETLRLVQAFQFTDKHGEVCPAGWKPGSDTIKPDVQKSKEYFSKQK
B2: Myc-PRDX1 (protein, UniProt Q06830 1-199)
chain: MSSGNAKIGHPAPNFKATAVMPDGQFKDISLSDYKGKYVVFFFYPLDFTFVCPTEIIAFSDRAEEFKKLNCQVIGASVDSHFCHLAWVNTPKKQGGLGPMNIPLVSDPKRTIAQDYGVLKADEGISFRGLFIIDDKGILRQITVNDLPVGRSVDETLRLVQAFQFTDKHGEVCPAGWKPGSDTIKPDVQKSKEYFSKQK

Legend:
[1] = target: CDK1 (human (endogenous in PC9 and H358)) (UniProt P06493); experiment: co-IP; endogenous proteins from lysates of LUAD cells (PC9, H358), with or without LINC00880 overexpression; Pierce Classic Magnetic IP/Co-IP Kit, western blotting
Flag-CDK1 = Flag-CDK1 (UniProt P06493); experiment: co-IP; PC9 cells transfected with plasmids encoding Myc-PRDX1 and Flag-CDK1, with increased LINC00880 expression; Pierce Classic Magnetic IP/Co-IP Kit, western blotting

Binder	binding [1]	binding (Flag-CDK1)
B1	binds	
B2		binds
